PubChem BioAssay AID540303 (National Center for Advancing Translational Sciences (NCATS), 2011)
The whole screen tested about 330,000 compounds, of which about 1,000 (0.3%) were called active. Inconclusive means that the source gave no clear call. Such entries were picked first, then a sample of the others. Calls follow the shape of the dose curve; as a rule, active = well fitted inhibition curve with a large enough effect; inconclusive = small, poorly fitted or top-dose-only effect; inactive = no such curve, though single readings can be large or run the other way; tested in mouse RAW 264.7 cells. Potencies of inconclusive entries are doubtful fits and often do not repeat.

Assay: qHTS for Inhibitors of Cell Surface uPA Generation; also: nearly all actives have a fitted effect of over 55% in size
Details: cell surface uPA generation assay; series mostly up to 38.3 µM; activity change, negative = inhibition: at the top concentration
How it was run: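 ATP-Lite luminescence in RAW 264.7 cells after 24 h of exposure to compound, tested up to 38.3 uM final in 1:5 steps. Raised ATP reflects inhibition of uPA-dependent LF delivery to the cytoplasm.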
% is scaled to controls: 0 for no effect and ±100 for the full control effect; potency is read from the fitted curve at half-maximal effect.

Row | Structure (SMILES) | Potency | activity change, negative = inhibition
1 | Cc1cccc2sc(NNC(=O)c3ccc(S(=O)(=O)N4CC(C)CC(C)C4)cc3)nc12 (stereo not given) | inconclusive: 8.91 µM [inhibitor, single point] | 
2 | COCCCC1CCN(C(=O)c2cc(COc3ccc(C)nc3)on2)CC1 | inconclusive: 8.91 µM [inhibitor, partial curve, poor fit] | 
3 | Clc1ccccc1-c1ncc(-c2ccccc2)o1 | inconclusive: 14.1 µM [inhibitor, single point] | 
4 | Nc1c(C(=O)Nc2ccc(Cl)c(C(=O)O)c2)sc2nc3c(cc12)CCCC3 | inconclusive: 8.91 µM [inhibitor, partial curve, poor fit] | 
5 | Cc1ccc2nc(-c3ccc(NC(=O)CNC4CC4)cc3)sc2c1 | inconclusive: 8.91 µM [inhibitor, partial curve, poor fit] | 
6 | CCc1ccc(O)c(CNCCNCc2cc(CC)ccc2O)c1 | inconclusive: 7.08 µM [inhibitor, single point] | 
7 | COc1cccc(C(=O)O/N=C(\N)c2ccc(C)cc2)c1 | inconclusive: 8.91 µM [inhibitor, single point] | 
8 | Nc1ccc(-c2nc3ccccc3[nH]2)cc1 | inconclusive: 12.6 µM [inhibitor, partial curve] | 
9 | O=C(CSc1ncnc2c1nnn2Cc1ccccc1F)NCC1CCCO1 (stereo not given) |  | inactive: -17.5%
10 | COc1ccc(N=Cc2c(C)[nH][nH]c2=O)cc1 | inconclusive: 5.62 µM [inhibitor, partial curve, poor fit] | 
11 | Cn1nnnc1Sc1ncnc2scc(-c3ccc(F)cc3)c12 |  | inactive: -10%
12 | O=c1c2ccccc2nc(COc2ccccc2)n1/N=C/c1ccc(O)c(O)c1 | inconclusive: 5.62 µM [inhibitor, partial curve, poor fit] | 
13 | Nc1ccc(C(=O)N2CCN(S(=O)(=O)c3ccc4c(c3)OCCCO4)CC2)cc1[N+](=O)[O-] | inconclusive: 14.1 µM [inhibitor, partial curve, poor fit] | 
14 | COc1ccc2c(c1OC)C(=O)O[C@@H]2[C@H]1c2c(cc3c(c2OC)OCO3)CCN1C | inconclusive: 14.1 µM [inhibitor, single point] | 
15 | Fc1ccc(-c2nnc(-c3ccc(Cl)cc3Cl)o2)cc1 | inconclusive: 0.891 µM [inhibitor, full curve, poor fit] | 
16 | CC(O)(CC(=O)CC(=O)c1ccccc1)c1ccccc1 (stereo not given) | inconclusive: 10 µM [inhibitor, single point] | 
17 | Cc1cc(-n2c(SCC(=O)NCCC3=CCCCC3)nc3n[nH]c(C)c3c2=N)ccc1Cl | inconclusive: 6.31 µM [inhibitor, partial curve, poor fit] | 
18 | Cn1c(C=O)c(C#Cc2ccccc2)c2ccccc21 | inconclusive: 12.6 µM [inhibitor, single point] | 
19 | O=C(Nc1cccc2ccccc12)c1ccc([N+](=O)[O-])cc1 | inconclusive: 28.2 µM [inhibitor, single point] | 
20 | CCN(CC)CCCn1c2c(c(SCC(=O)Nc3ccc4c(c3)OCO4)nc1=O)CCC2 | inconclusive: 3.55 µM [inhibitor, single point] | 
21 | CCOc1ccc(S(=O)(=O)Nc2cc(SCC(=O)O)c(O)c3ccccc23)cc1 | inconclusive: 22.4 µM [inhibitor, single point] | 
22 | c1ccc(CNc2c3ccccc3nc3ccccc23)cc1 | inconclusive: 10 µM [inhibitor, single point] | 

Reprinted at random: 3 records from the list.
Row | Structure (SMILES) | Potency | activity change, negative = inhibition
14 | COc1ccc2c(c1OC)C(=O)O[C@@H]2[C@H]1c2c(cc3c(c2OC)OCO3)CCN1C | inconclusive: 14.1 µM [inhibitor, single point] | 
20 | CCN(CC)CCCn1c2c(c(SCC(=O)Nc3ccc4c(c3)OCO4)nc1=O)CCC2 | inconclusive: 3.55 µM [inhibitor, single point] | 
8 | Nc1ccc(-c2nc3ccccc3[nH]2)cc1 | inconclusive: 12.6 µM [inhibitor, partial curve] | 

(continued)

Row | Structure (SMILES) | Potency | activity change, negative = inhibition
23 | CCOc1ccc(/C=N/NC(=O)c2ccccc2Cl)cc1CN1CC2CC(C1)c1cccc(=O)n1C2 (stereo not given) | inconclusive: 12.6 µM [inhibitor, single point] | 
24 | FC(F)(F)c1ccccc1NC(=S)N1CCN(c2ccccn2)CC1 | inconclusive: 22.4 µM [inhibitor, single point] | 
25 | C=CCSc1nc2sc3c(c2c(=O)n1CC=C)CCc1ccccc1-3 |  | inactive: -1.53%
26 | O=C(NCCc1ccc(F)cc1)c1cccc(NC(=O)c2ccccc2)c1 | inconclusive: 22.4 µM [inhibitor, single point] | 
27 | CC1(C(=O)NCCN2CCOCC2)C=CCN1C(=O)c1ccccc1 (stereo not given) | inconclusive: 3.55 µM [inhibitor, full curve, poor fit] | 
28 | Cc1[nH]c(C)c(C(=O)/C=C/c2ccc([N+](=O)[O-])cc2)c1C | inconclusive: 10 µM [inhibitor, partial curve, poor fit] | 
29 | O=C(Cc1ccc(Cl)c(Cl)c1)Nc1ccc(SC(F)F)cc1 | inconclusive: 11.2 µM [inhibitor, single point] | 
30 | CN(CC(=O)Nc1ccc(Cl)c(C(F)(F)F)c1)C(=O)c1cc(=O)c2ccccc2o1 | inconclusive: 28.2 µM [inhibitor, single point] | 
31 | COc1ccc2c(c1)-c1nc(/N=C/c3c(O)ccc4ccccc34)sc1CC2 |  | inactive: -4.65%
32 | CCOC(=O)N1CCN(C(=O)CSCC(=O)Nc2nc(-c3ccc(-c4ccccc4)cc3)cs2)CC1 | inconclusive: 5.01 µM [inhibitor, partial curve, poor fit] | 
33 | CCc1ccccc1NC(=O)CN1CCN(C(=O)CN2C(=O)NC3(CCCC3)C2=O)CC1 |  | inactive: 1.11%
34 | C[C@@H](CSc1ccccc1)CN1CC[C@H](O)CCC1=O |  | inactive: 4.11%
35 | Cc1ccc(C2CC(c3cccc(NS(C)(=O)=O)c3)=NN2S(C)(=O)=O)cc1 (stereo not given) | inconclusive: 12.6 µM [inhibitor, single point] | 
36 | CCC(CO)Nc1ncnc2c1cnn2-c1ccc(Cl)cc1 (stereo not given) | inconclusive: 12.6 µM [inhibitor, single point] | 
37 | CCN1CCN(c2cc(C)c3cc(NC(=S)N4CCOCC4)ccc3n2)CC1 | inconclusive: 7.08 µM [inhibitor, single point] | 
38 | C/C(=N/Nc1ccnc2cc(Cl)ccc12)c1ccc(O)cc1 | inconclusive: 5.62 µM [inhibitor, partial curve] | 
39 | O=C1CSC(c2ccccc2F)N1c1ccccc1F (stereo not given) | inconclusive: 1 µM [inhibitor, partial curve, poor fit] | 
40 | O=c1cc(N2CCN(c3ccccc3)CC2)[nH]c(=O)n1C1CCCCC1 |  | inactive: -5.46%
41 | Nc1ccc(-c2nc3ncccc3o2)cc1 | inconclusive: 0.355 µM [inhibitor, partial curve, poor fit] | 
42 | O=C(Nc1ccc2c(c1)OCCO2)c1cccc(Br)c1 |  | inactive: -6.38%
43 | O=C(Cc1ccccn1)c1ccccc1 | inconclusive: 2.82 µM [inhibitor, partial curve, poor fit] | 
44 | O/C(=C\c1ccc2ccccc2n1)c1ccncc1 | inconclusive: 14.1 µM [inhibitor, single point] | 

Row | Structure (SMILES) | Potency | activity change, negative = inhibition
45 | COCCCNC(=O)c1ccccc1N(Cc1ccccc1)S(=O)(=O)c1ccc(OC)cc1 | inconclusive: 11.2 µM [inhibitor, single point] | 
46 | Cc1nn(-c2ccccc2)c(C)c1C(=O)OCC(=O)Nc1ccccc1F | active: 10 µM | 
47 | CCN(c1cccc2ccccc12)S(=O)(=O)c1cccs1 | inconclusive: 0.562 µM [inhibitor, partial curve] | 
48 | COc1ccc(S(=O)(=O)Nc2ccc(C)cc2)cc1N(C)S(=O)(=O)c1ccc(Cl)cc1 |  | inactive: -21.1%
49 | C=CCCC(=O)Nc1nc(C)c(-c2csc(Nc3ccccc3OC)n2)s1 | active: 3.55 µM | 
50 | CCOC(=O)C1CCCN(C(=O)c2cc(Nc3ccc(OC)cc3)nc3ccccc23)C1 (stereo not given) |  | inactive: -2.69%
51 | CN(Cc1nccs1)C(=O)c1cc(COc2cccc3cnccc23)on1 | inconclusive: 14.1 µM [inhibitor, partial curve, poor fit] | 
52 | CCOC(=O)C1CCN(C(=O)C(C)N(c2ccc(Oc3ccccc3)cc2)S(C)(=O)=O)CC1 (stereo not given) | inconclusive: 22.4 µM [inhibitor, single point] | 
53 | CCOc1ccc(/C=N/NC(=O)c2cc3c(OC)cc(OC)c(OC)c3[nH]2)cc1 | inconclusive: 12.6 µM [inhibitor, single point] | 
54 | CN(C)C(=O)N1CCN(c2nc(-c3ccccc3)cs2)CC1 | inconclusive: 7.94 µM [inhibitor, partial curve, poor fit] | 
55 | O=C(Nc1cccc(S(=O)(=O)N2CCCCC2)c1)c1cc2ccccc2o1 |  | inactive: -13.8%
56 | O=C(C[C@H]1C[C@H](C(=O)N2CCCCC2)[C@@]2(CCc3ccccc3)c3[nH]c4ccc(Cl)cc4c3CCN2C1=O)NCCCn1ccnc1 | inconclusive: 12.6 µM [inhibitor, single point] | 
57 | COCCN1C(=O)C(CC(=O)Nc2ccc(C(=O)O)cc2)SC1=Nc1ccccc1 (stereo not given) |  | inactive: 2.03%
58 | CCOc1cc(NC(=S)Nc2cccc(OC)c2)c(OCC)cc1NC(=O)C1CC1 |  | inactive: 5.85%
59 | O=C(Nc1ccc(F)cc1)C(=O)c1cn(CC(=O)N2CCOCC2)c2ccccc12 | inconclusive: 11.2 µM [inhibitor, single point] | 
60 | O=C(C[C@H]1C[C@H](C(=O)N2CCOCC2)[C@@]2(CCC3CCCC3)c3[nH]c4ccc(Cl)cc4c3CCN2C1=O)NCCCn1ccnc1 | active: 12.6 µM | 
61 | CC(C)NCc1cc(Br)ccc1OCc1ccccc1 | inconclusive: 6.31 µM [inhibitor, partial curve, poor fit] | 
62 | COc1ccc(NC(=O)c2cccnn2)cc1 | inconclusive: 2.24 µM [inhibitor, full curve, poor fit] | 
63 | CCCn1c2ccccc2c2cnn(CC(=O)NCCCN3CCN(c4ccccc4)CC3)c(=O)c21 | inconclusive: 28.2 µM [inhibitor, single point] | 
64 | CCN(CC)CCC(c1ccc(OC)cc1)c1c(O)cc(OC)cc1OC (stereo not given) | inconclusive: 11.2 µM [inhibitor, single point] | 
65 | Nc1ccccc1NC(=O)CCn1c(=S)[nH]c2ccccc2c1=O | inconclusive: 4.47 µM [inhibitor, partial curve, poor fit] | 
